Taken from: PubChem BioAssay AID1508597 (Cure First, 2020)
Assay: 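Genes whose silencing sensitises or protects ovarian cancer cells against rucaparib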 (primary screen). Cells: human ovarian carcinoma lines grown from tumours: OCI-P5x (papillary serous) and OCI-C5x (clear cell). Reagents: siRNA pool against human genes, 1.25 pmol siRNA per well. Timing: 72 h or 96 h, depending on the cell culture. Challenge: rucaparib 20 µM (about IC30) or vehicle, present until read-out. Rucaparib or vehicle: Vehicle. Cell line: OCI-C5x (clear cell). Measurement: 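Luminescent ATP-based viability assay read 72 or 96 h after transfection, depending on culture, given as normalised percent viability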. Scale: viability, normalised: higher = more viable cells remaining. Rule for the call: 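a well counts as a hit if its normalised viability is under 80 percent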. Meaning of the calls: active = viability under 80%; inactive = viability 80% or more.
This is a random part of the about 2,100 reagents, in one setting of the screen. 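Calls flag viability under 80% in either arm, not effects specific to rucaparib; the reference for percent is not stated.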 The record does not give: the 100% reference.

Gene	technical replicate	viability, normalised (%)	Call
RAD9A (RAD9 checkpoint clamp component A)	1	40.9	active
RAD9A (RAD9 checkpoint clamp component A)	2	49	active
RAD9A (RAD9 checkpoint clamp component A)	3	37.5	active
DHX30 (DExH-box helicase 30)	1	57.8	active
DHX30 (DExH-box helicase 30)	2	52.1	active
DHX30 (DExH-box helicase 30)	3	46.7	active
FES (FES proto-oncogene, tyrosine kinase)	1	30.6	active
FES (FES proto-oncogene, tyrosine kinase)	2	47.1	active
FES (FES proto-oncogene, tyrosine kinase)	3	46.7	active
RTEL1 (regulator of telomere elongation helicase 1)	1	41.9	active
RTEL1 (regulator of telomere elongation helicase 1)	2	36.8	active
RTEL1 (regulator of telomere elongation helicase 1)	3	47.5	active
DCLK1 (doublecortin like kinase 1)	1	56.7	active
DCLK1 (doublecortin like kinase 1)	2	78.7	active
DCLK1 (doublecortin like kinase 1)	3	57.5	active
CD40LG (CD40 ligand)	1	50.6	active
CD40LG (CD40 ligand)	2	49.6	active
CD40LG (CD40 ligand)	3	48.1	active
ULK1 (unc-51 like autophagy activating kinase 1)	1	57	active
ULK1 (unc-51 like autophagy activating kinase 1)	2	44.8	active
ULK1 (unc-51 like autophagy activating kinase 1)	3	61.3	active
MYO6 (myosin VI)	1	25.4	active
MYO6 (myosin VI)	2	28.6	active
MYO6 (myosin VI)	3	44.7	active
STK17B (serine/threonine kinase 17b)	1	93.2	inactive
STK17B (serine/threonine kinase 17b)	2	109	inactive
STK17B (serine/threonine kinase 17b)	3	93	inactive
POLG2 (DNA polymerase gamma 2, accessory subunit)	1	87.5	inactive
POLG2 (DNA polymerase gamma 2, accessory subunit)	2	94.5	inactive
POLG2 (DNA polymerase gamma 2, accessory subunit)	3	77.9	active
CSK (C-terminal Src kinase)	1	54.2	active
CSK (C-terminal Src kinase)	2	53.3	active
CSK (C-terminal Src kinase)	3	40.3	active

4 entries already listed, arranged by “viability, normalised (%)”, descending:
Gene	technical replicate	viability, normalised (%)	Call
DHX30 (DExH-box helicase 30)	2	52.1	active
FES (FES proto-oncogene, tyrosine kinase)	2	47.1	active
DHX30 (DExH-box helicase 30)	3	46.7	active
FES (FES proto-oncogene, tyrosine kinase)	1	30.6	active

Additional reagents follow.
Gene	technical replicate	viability, normalised (%)	Call
PI4K2B (phosphatidylinositol 4-kinase type 2 beta)	1	45.1	active
PI4K2B (phosphatidylinositol 4-kinase type 2 beta)	2	62.7	active
PI4K2B (phosphatidylinositol 4-kinase type 2 beta)	3	59.5	active
ATF7IP2 (activating transcription factor 7 interacting protein 2)	1	46.6	active
ATF7IP2 (activating transcription factor 7 interacting protein 2)	2	62.5	active
ATF7IP2 (activating transcription factor 7 interacting protein 2)	3	34.6	active
ACTL6A (actin like 6A)	1	51.8	active
ACTL6A (actin like 6A)	2	49.6	active
ACTL6A (actin like 6A)	3	47	active
AICDA (activation induced cytidine deaminase)	1	67.7	active
AICDA (activation induced cytidine deaminase)	2	45.3	active
AICDA (activation induced cytidine deaminase)	3	66.9	active
PDE9A (phosphodiesterase 9A)	1	53.1	active
PDE9A (phosphodiesterase 9A)	2	66.6	active
PDE9A (phosphodiesterase 9A)	3	48.5	active
PHF19 (PHD finger protein 19)	1	39.2	active
PHF19 (PHD finger protein 19)	2	39.8	active
PHF19 (PHD finger protein 19)	3	37.2	active
DYRK4 (dual specificity tyrosine phosphorylation regulated kinase 4)	1	121	inactive
DYRK4 (dual specificity tyrosine phosphorylation regulated kinase 4)	2	68.2	active
DYRK4 (dual specificity tyrosine phosphorylation regulated kinase 4)	3	68	active
SP100 (SP100 nuclear body protein)	1	56	active
SP100 (SP100 nuclear body protein)	2	54.5	active
SP100 (SP100 nuclear body protein)	3	50.6	active
